Assay results: PMC11106082
These are yes or no findings as the source states them, for the method shown. Some binding calls cover weakened binding; strength is not graded here.

T1: TssK cognate to TssA1 (H1-T6SS baseplate component) (P. aeruginosa) (UniProt Q9I753)
T1 sequence: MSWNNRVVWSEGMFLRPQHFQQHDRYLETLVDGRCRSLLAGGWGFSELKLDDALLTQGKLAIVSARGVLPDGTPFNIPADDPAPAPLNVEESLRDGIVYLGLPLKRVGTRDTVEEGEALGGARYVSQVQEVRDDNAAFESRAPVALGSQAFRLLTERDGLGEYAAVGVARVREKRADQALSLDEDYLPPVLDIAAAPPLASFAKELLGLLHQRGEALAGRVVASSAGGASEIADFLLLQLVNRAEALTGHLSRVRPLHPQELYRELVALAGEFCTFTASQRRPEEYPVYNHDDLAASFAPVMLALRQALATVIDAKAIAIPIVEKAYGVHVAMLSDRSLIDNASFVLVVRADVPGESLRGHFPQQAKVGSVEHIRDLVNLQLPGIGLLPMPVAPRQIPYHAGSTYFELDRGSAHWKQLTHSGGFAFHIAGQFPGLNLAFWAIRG

T2: TssB1 (P. aeruginosa), Q9I749
T2 chain: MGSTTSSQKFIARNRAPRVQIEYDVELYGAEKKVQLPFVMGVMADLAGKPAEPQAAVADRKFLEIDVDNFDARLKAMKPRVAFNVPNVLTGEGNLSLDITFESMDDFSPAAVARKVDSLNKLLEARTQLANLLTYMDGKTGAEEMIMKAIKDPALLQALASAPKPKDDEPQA

B1: TssA1 (protein, UniProt Q9I750 1-344)
chain: MLDVPVLLAAVSPDSPCGDDLEYDAAFLELERIAQGQPERQMGDAVLPAEPPEWPRVRALASELFGRSKDLRVANLLLQSNVALDGLDGLADGLLLVRELLGQYWDGVYPLLDADDDNDPTFRINALTGLVAEPLLQLVWAIPLVRSRAFGPVNLRAALNAAGLQRFASETLSPEQIAGAFADADADALAATRRALDGAQEHALAIESGVAERVGSAQGLDLGPLRQLLRQALQVFDLYGPQGAGESLAPGAEAVADEQVGAAPVAAVAAPAPRASGEIANREDVLRQLDRLLEYYVRHEPSSPVPVLLKRAKTLVTADFAEIVRNLIPDGISQFETLRGPESE
B2: TssA1, Q9I750 1-344 (protein)
chain: B1 chain

Experiments:
Assay in all cases: two-hybrid; bacterial two-hybrid (BTH): T18 and T25 fusions from pKT25 or pUT18C co-transformed into E. coli DHM1; spotted on LB agar with 1 mM IPTG and 100 µg/ml X-Gal, 30 °C, 24 or 40 h; blue colour on interaction
[1] = biological target: T1, TssK cognate to TssA1 (H1-T6SS baseplate component) (P. aeruginosa)
[2] = biological target: TssA1 (P. aeruginosa) (UniProt Q9I750)
[3] = biological target: T2, TssB1 (P. aeruginosa), Q9I749; conditions: remark: other sources report otherwise

Binder	binding [1]	binding [2]	binding [3]
B1	binds	binds	
B2			no binding
